Source: patent US7919268B2, “Reducing sample turbidity in measurement of enzymatic activity in cell lysates” (Roche Diagnostics Operations, Inc., priority 2005, dated 2011)
“Also recorded” adds a separate entry of the source.

System: LDH
Assay: Measurement of different amounts of released LDH in the presence of high amounts of cells with detergent solutions
Format: biochemical, human
Settings: for Absorption after 5 min (measurement after 5 days) / Absorption after 5 min, measurement 10 min after terminating the reaction / Absorption after 30 min (measurement after 5 days) / Absorption after 30 min, measurement 10 min after terminating the reaction: 492 nm, 150,000 U 937 cells added, blank subtracted; for Absorption after 5 min (measurement after 5 days) / Absorption after 5 min, measurement 10 min after terminating the reaction / Absorption after 30 min (measurement after 5 days) / Absorption after 30 min, measurement 10 min after terminating the reaction / Stability of the measured values (signal) over 5 days: detergent 1% (v/v); for Absorption of the reduced INT substrate (in words): cationic detergents; for Stability of the measured values (signal) over 5 days: reduced INT colour substrate

| Molecule | Absorption after 5 min (measurement after 5 days) (lysate of 0 cells) | Absorption after 5 min, measurement 10 min after terminating the reaction (lysate of 0 cells) | Absorption after 30 min (measurement after 5 days) (lysate of 0 cells) | Absorption after 30 min, measurement 10 min after terminating the reaction (lysate of 0 cells) | Absorption after 5 min (measurement after 5 days) (lysate of 1 000 cells) | Absorption after 5 min, measurement 10 min after terminating the reaction (lysate of 1 000 cells) | Absorption after 30 min (measurement after 5 days) (lysate of 1 000 cells) | Absorption after 30 min, measurement 10 min after terminating the reaction (lysate of 1 000 cells) | Absorption after 5 min (measurement after 5 days) (lysate of 10 000 cells) | Absorption after 5 min, measurement 10 min after terminating the reaction (lysate of 10 000 cells) | Absorption after 30 min (measurement after 5 days) (lysate of 10 000 cells) | Absorption after 30 min, measurement 10 min after terminating the reaction (lysate of 10 000 cells) | Absorption after 5 min (measurement after 5 days) (lysate of 50 000 cells) | Absorption after 5 min, measurement 10 min after terminating the reaction (lysate of 50 000 cells) | Absorption after 30 min (measurement after 5 days) (lysate of 50 000 cells) | Absorption after 30 min, measurement 10 min after terminating the reaction (lysate of 50 000 cells) | Absorption of the reduced INT substrate (in words) | Stability of the measured values (signal) over 5 days | Stability of the measured values (signal) over 5 days (sulphate) |
| --- | --- | --- | --- | --- | --- | --- | --- | --- | --- | --- | --- | --- | --- | --- | --- | --- | --- | --- | --- |
| CCCCCCCCCCCCCCCC[N+](C)(C)C.[Br-] [CTAB, cetyltrimethylammonium bromide] | (0.000) | 0.000 | (0.000) | 0.000 | (0.002) | 0.001 | (0.004) | 0.010 | (0.021) | 0.036 | (0.077) | 0.084 | (0.085) | 0.095 | (0.63) | 0.72 | increased | very stable; also recorded: almost stable | – |
| CCCCCCCCCCCC[N+](C)(C)C.[Br-] [DTAB, dodecyltrimethylammonium bromide] | (0.000) | 0.000 | (0.000) | 0.000 | (0.002) | 0.002 | (0.005) | 0.008 | (0.026) | 0.034 | (0.069) | 0.075 | (0.082) | 0.88 | (0.99) | 0.70 | increased | very stable; also recorded: almost stable | – |
| CCCCCCCCCCCCOS(=O)(=O)[O-].[Na+] [SDS, sodium dodecyl sulphate] | (0.000) | 0.000 | (0.000) | 0.000 | (0.000) | 0.000 | (0.000) | 0.007 | (0.000) | 0.011 | (0.000) | 0.078 | (0.008) | 0.093 | (0.021) | 0.364 | – | – | rapid loss in absorption; also recorded: destabilizing effect |
| octylphenoxypolyethoxyethanol [Triton X100] | (0.000) | 0.000 | (0.000) | 0.000 | (0.001) | 0.003 | (0.001) | 0.006 | (0.035) | 0.038 | (0.065) | 0.078 | (0.093) | 0.101 | (0.150) | 0.338 | – | decreased considerably | – |
